Assay results from the supplement of paper PMC3334620.
Over roughly 33,000 sequences, “E-score (-0.5 to 0.5)” has its median near -0.015; the highest 2% begin near 0.3. The list shows a part of the results.

These sequences were tested against T1, Abf1 (UniProt P14164) (assay: PBM E-score (8-mer binding enrichment) (E-score (-0.5 to 0.5)); higher = stronger / more preferred TF binding). Conditions: protein concentration: 200 nM; construct: GST-full length.
T1 sequence: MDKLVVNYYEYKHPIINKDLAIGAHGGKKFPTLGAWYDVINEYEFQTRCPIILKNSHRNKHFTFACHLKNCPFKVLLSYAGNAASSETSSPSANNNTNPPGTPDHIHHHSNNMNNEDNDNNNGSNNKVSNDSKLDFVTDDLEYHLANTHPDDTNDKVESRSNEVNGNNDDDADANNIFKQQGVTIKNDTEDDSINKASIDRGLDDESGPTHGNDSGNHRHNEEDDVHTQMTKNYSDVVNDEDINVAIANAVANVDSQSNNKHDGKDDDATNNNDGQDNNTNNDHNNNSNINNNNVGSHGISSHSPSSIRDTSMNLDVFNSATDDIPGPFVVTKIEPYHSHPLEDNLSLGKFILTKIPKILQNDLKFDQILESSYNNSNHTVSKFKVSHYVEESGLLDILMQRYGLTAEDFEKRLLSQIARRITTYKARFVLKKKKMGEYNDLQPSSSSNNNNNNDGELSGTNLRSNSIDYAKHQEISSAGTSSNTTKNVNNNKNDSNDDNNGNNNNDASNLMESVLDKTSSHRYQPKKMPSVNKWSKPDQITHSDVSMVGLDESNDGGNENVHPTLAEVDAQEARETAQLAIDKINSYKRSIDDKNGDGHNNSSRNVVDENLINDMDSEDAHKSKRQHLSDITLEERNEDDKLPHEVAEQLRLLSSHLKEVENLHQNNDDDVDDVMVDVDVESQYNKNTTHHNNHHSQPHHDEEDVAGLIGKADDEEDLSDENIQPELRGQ
Method in brief: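 Full-length yeast transcription factors or their DNA-binding domains, GST-tagged and expressed with PURExpress, were applied at about 100-200 nM to universal all-10-mer Agilent arrays. These arrays had been made double-stranded by primer extension on fresh or once-stripped slides. Detection used fluorescent anti-GST, normalisation used masliner, and E-scores for ungapped eight-base words pooled with reverse complements came from the Universal PBM Analysis Suite.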

Sequence	PBM E-score
CCAAACGA	0.0941
ATGGGCAG	-0.0345
AGTCGACC	-0.0725
GCATCCGA	-0.146
TACGGCCA	0.247
GCGAGAAC	-0.095
AACTAACG	0.181
ACCTGTCT	-0.149
ACTTAGCT	-0.196
ATCTGTAA	-0.183
CGGCTTTA	-0.106
GCCCCGCA	-0.278
ACAGCACA	-0.0943
ACACCCCG	-0.142
CTGCTTGC	-0.128
CAATTGAG	-0.185
GCCTAGGA	-0.178
AGGTCGCC	-0.0212
AGAGTAGA	0.0737
CAAACACA	-0.0026
CAAGCTAG	-0.112
CGCGACGA	0.267
ATGAAGCG	-0.164
ACCGGTTC	-0.222
CATCTAGC	0.0327

Sequence	PBM E-score
CACGTTCC	-0.104
TGGGTCAA	-0.0233
CTTTATTA	0.121
CGACGACG	0.177
CATCCGCA	0.148
AAACTTAT	0.184
AGGCAAGA	-0.0497
AGATCAGC	0.0336
CCATTACC	-0.146
ATCTCTTC	0.106
ACTCGCGC	-0.147
CGAAAATA	0.131
GAGAGTTA	-0.098
CATACGCA	0.168
AGGACGAC	0.12
AATTTATG	0.147
CACGGCCG	0.228
GATTTTGA	0.259
ACTCATGA	0.14
ACCTCACC	-0.0217
TATATAAA	0.236
CATTCTCA	0.173
GTTGATGA	0.283
CCAATGGG	-0.39
TTTCCAAA	-0.131

Sequence	PBM E-score
AGATTACG	-0.0794
TATAATAA	0.0758
AGACCTTA	-0.0143
ACAATCGC	-0.0937
ACCACGGT	0.119
CCCGTAGA	-0.0409
ACATGCCC	-0.148
AGGTCTAA	-0.106
AAAATACT	-0.0265
AAATATGT	0.334
CAAGTCCG	-0.00708
CCCACCAG	-0.267
ATGAGTCA	0.0874
ATATTCAG	0.102
GCACCCCA	-0.171
ATGAATTG	0.141
AATCAGGG	-0.152
ACGGGACG	0.0216
GTCAGCGA	-0.087
TGTGAACA	0.0252
CCAGCCCC	-0.321
TGGTCAAA	0.111
AATTATGG	0.0208
CATCGTAC	0.382
GTCGACAC	0.122

Sequence	PBM E-score
TACGTAAA	0.27
GTGTTGGA	-0.0385
CACCTTAA	0.0676
CGGGTCAA	-0.204
ACATCCCA	-0.0166
CAATAGAC	0.00301
ATCCCTAC	0.0477
GAGAGGGA	-0.137
AGGCCAAT	0.0234
CCGTTAGG	0.117
AGCTAACA	-0.113
GAGAAGCA	-0.11
CTAATAAA	0.162
AGGCGAAC	0.018
GACGCCCA	-0.113
AACTAAGG	-0.14
GGCTTTGA	-0.0102
CGACCCTC	-0.152
AAGGCGTG	-0.00737
CCTGGCGA	-0.127
ACCGTTTG	0.103
AGGGGTCC	-0.243
AGGGCCCC	-0.28
TGAGCGCA	-0.291
CGCCCAGA	-0.12

Sequence	PBM E-score
TAGCTCAA	-0.127
TACCGTCA	0.262
AAAGTTGC	-0.0857
TGGCAACA	-0.126
CGGAGGAA	-0.228
ATTGTATA	0.216
AAGGGGGA	-0.356
AGGTCTTG	-0.0441
CCTTAGGA	0.00779
TATTTCAA	0.294
CAACAGGC	-0.0572
AATCCAGT	0.0412
AGCATGTG	-0.144
TTGCACAA	-0.0953
CGATCATC	0.157
AAGGCGGT	-0.138
AGGCTAGG	-0.28
TACGCGAA	-0.0737
CATGATGA	0.365
GGATCCAA	0.073
AAGTATCG	-0.012
CCGCTAAA	0.00412
CCCAGCCC	-0.222
ACCGGTGC	-0.0171
AATAGTTC	0.16

Sequence	PBM E-score
AATAACTC	0.0551
CGCGGAAG	-0.166
GCATTGCC	-0.0192
GGAACGTA	-0.0442
ATTTCCAC	0.0755
ATCCGTCC	-0.0687
CGGGTACC	-0.132
GAAACTTC	0.0521
CCCTTACC	-0.0961
ACGAACCG	0.252
AGTGCTGA	-0.018
ACGGCGGC	0.17
ATTAAAGG	0.0968
AGCTCTTG	0.0406
GACGTACC	0.247
ACGCTAGG	-0.282
CTTTCGTA	0.376
ATATATGA	0.0175
CGGTCCAG	-0.153
AACAACGC	0.0961
AGCCTAAT	-0.00782
AATATTAA	0.269
ACGTCAAA	0.22
CACCCTTA	-0.00883
GTATGATA	0.327

Sequence	PBM E-score
GCCAGGCA	-0.186
AACCACCT	-0.127
CGCTGGTA	-0.0865
AAGCTTGG	-0.13
ACGCCATG	0.0169
AACTAGTC	-0.214
ATACTGGG	-0.105
AACGATCG	0.24
ACCCAAGT	-0.0785
AGGAGGAA	-0.126
CTCTTCCC	-0.293
CAGGAACC	-0.244
AGCGTGAC	0.186
ATATCCAT	0.154
AGATCTAT	-0.0505
AATTGGTC	0.111
CACGTCAA	0.0325
AAAATCGT	0.247
AGATCCAT	-0.203
CAGAGCGC	-0.162
GTGCCAAC	0.0627
GGAGAACC	-0.211
